Protein sequences can lack the tags named with them.
Tests used:
Experiment in all cases: enzyme reaction in vitro
[1] = target: T1, T7 DNA polymerase (Enterobacteria phage T7) (UniProt P00581); settings: without dNTPs degrades RNA to nucleotides or short oligos, no stop at hybrid, lower DNA synthesis than Phi29, purified recombinant protein, protein details: Fermentas, label: 5'-33P or 3'-32P RNA
T1 sequence (limits assumed): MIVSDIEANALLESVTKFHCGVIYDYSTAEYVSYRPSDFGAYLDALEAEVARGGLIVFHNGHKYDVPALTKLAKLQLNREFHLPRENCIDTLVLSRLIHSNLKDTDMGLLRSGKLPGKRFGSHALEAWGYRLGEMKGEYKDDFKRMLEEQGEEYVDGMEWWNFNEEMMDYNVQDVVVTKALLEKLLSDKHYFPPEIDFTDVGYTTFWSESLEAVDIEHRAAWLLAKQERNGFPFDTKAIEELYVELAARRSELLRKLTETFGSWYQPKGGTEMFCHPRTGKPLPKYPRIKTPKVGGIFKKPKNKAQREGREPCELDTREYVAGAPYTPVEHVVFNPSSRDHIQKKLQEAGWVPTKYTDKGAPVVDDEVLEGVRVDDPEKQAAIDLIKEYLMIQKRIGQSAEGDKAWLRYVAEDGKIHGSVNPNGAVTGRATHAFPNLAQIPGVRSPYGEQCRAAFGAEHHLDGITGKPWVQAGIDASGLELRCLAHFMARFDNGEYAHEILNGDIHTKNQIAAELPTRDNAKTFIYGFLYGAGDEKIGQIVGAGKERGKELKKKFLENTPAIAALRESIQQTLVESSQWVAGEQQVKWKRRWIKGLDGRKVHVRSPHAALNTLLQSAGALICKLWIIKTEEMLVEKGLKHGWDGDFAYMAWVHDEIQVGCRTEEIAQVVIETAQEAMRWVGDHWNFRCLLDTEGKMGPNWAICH

[2] = target: T2, T4 DNA polymerase (Enterobacteria phage T4) (UniProt P04415); settings: hydrolyses RNA in hybrid and initiates DNA synthesis, lower synthesis than Phi29, purified recombinant protein, protein details: Fermentas, label: 5'-33P or 3'-32P RNA
T2 sequence (limits assumed): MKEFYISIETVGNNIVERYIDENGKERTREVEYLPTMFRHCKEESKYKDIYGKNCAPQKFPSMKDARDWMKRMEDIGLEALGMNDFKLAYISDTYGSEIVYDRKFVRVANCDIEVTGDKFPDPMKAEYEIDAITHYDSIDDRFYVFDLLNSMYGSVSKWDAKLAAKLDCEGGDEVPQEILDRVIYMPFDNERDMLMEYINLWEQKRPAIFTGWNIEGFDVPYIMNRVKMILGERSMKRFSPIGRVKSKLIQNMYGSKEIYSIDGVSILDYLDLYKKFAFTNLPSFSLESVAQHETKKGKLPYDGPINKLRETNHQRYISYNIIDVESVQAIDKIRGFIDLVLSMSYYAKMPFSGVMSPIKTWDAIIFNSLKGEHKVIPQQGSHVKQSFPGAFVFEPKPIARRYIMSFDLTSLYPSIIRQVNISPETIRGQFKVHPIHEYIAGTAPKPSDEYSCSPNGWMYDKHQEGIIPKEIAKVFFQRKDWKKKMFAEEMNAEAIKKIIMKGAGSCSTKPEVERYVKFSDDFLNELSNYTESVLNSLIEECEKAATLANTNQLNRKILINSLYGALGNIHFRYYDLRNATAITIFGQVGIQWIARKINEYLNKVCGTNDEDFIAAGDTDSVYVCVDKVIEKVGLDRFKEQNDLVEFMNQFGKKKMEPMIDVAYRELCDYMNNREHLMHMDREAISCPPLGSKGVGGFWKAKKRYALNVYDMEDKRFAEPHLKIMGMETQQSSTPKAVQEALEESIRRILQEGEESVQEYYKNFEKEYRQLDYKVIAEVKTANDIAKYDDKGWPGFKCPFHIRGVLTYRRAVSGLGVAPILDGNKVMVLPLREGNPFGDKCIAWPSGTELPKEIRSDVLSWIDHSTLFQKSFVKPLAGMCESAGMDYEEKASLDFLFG

[3] = target: T3, Phi29 DNA polymerase (Bacillus phage phi29) (UniProt P03680); settings: RNA 3' end processed into primer; RCA product with dNTPs; purified recombinant protein; protein details: Fermentas; label: 5'-33P or 3'-32P RNA; DNA:RNA hybrid
T3 sequence (limits assumed): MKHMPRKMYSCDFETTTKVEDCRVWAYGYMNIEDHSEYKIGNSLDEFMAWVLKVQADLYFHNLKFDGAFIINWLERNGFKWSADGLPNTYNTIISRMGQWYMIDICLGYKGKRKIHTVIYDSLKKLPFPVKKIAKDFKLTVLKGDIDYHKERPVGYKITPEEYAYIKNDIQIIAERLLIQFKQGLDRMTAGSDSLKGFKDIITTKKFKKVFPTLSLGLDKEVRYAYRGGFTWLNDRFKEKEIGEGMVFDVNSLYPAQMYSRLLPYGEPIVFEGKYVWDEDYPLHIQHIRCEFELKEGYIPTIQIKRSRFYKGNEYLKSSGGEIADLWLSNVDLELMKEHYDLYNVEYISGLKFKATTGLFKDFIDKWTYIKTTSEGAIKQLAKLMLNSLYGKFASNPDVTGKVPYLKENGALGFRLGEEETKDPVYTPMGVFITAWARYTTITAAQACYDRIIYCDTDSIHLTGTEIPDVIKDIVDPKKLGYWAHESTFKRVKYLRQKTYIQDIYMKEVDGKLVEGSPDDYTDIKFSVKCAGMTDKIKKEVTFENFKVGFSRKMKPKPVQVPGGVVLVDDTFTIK

Measured: activity on this sequence

GGGAAAGCUUUACAUUUUCGCGAUACCGUCCAGCGACAUUCUUCCUCGGUACAUAAUCUCCUUUGGCGUUUCCCGAUGUCCGUCACGCACAUGGGAUCCCCGGGUACCGAG / ATGTCGCTGGACGGTAATGCTGCTGCTGTACTACGAGCGGTCTCCAGGAATGCGCATTTATGTACCGAGGAAGA [RNA2-PP2 hybrid]
active: all assays above

Reference: patent publication US20090202993
